Measurements reported in PubChem BioAssay AID1259415 (National Center for Advancing Translational Sciences (NCATS), 2018).
Out of some 410,000 compounds screened, about 18,000 (4.4%) were called active. This list was built around the results that the source calls inconclusive (neither active nor inactive); the mix of calls is not that of the screen. No stated cut-off is given here; in the data, active means activity change below about -60%; inconclusive means no clear call, values can overlap the other calls; inactive means above about -39%.

Assay: qHTS Assay for inhibitors of the human cytomegalovirus (HCMV)
Conditions: HFF cells, HCMV-luciferase reporter, 72 h; at 57.5 µM; hits give low values
In short: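 Human foreskin fibroblasts infected with luciferase-reporter HCMV at MOI 1 PFU/cell, compounds at two doses. Luciferase measured 72 h post infection; normalized to buffer-only basal and Salinomycin (10uM) controls.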
On the % scale 0 is the no-effect control and ±100 the full control effect.

SMILES	activity change, negative = inhibition
CC(C)Oc1cccc(C(=O)Nc2ccc3oc(-c4cccc(Cl)c4)nc3c2)c1	inactive: -7.5%
Cc1cccc(OC(C)C(=O)OCC(=O)N2CCN(c3ccccc3)CC2)c1 (stereo not drawn)	inconclusive: -56.3%
Cc1c(CCO)c(=O)[nH]n1C(=O)c1ccc(F)cc1	inconclusive: -40.1%
COC(=O)C1=C(C)NC(C)=C(C(=O)OCC(C)C)C1c1ccccc1[N+](=O)[O-] (stereo not drawn)	inconclusive: -59%
Cc1nc2cc(C(=O)OCC(=O)Nc3ccc(C#N)cc3)ccc2n1-c1ccccc1	inactive: -19.3%
CC(C)CCn1c(SCc2ccc(Cl)cc2)nc2c1c(=O)[nH]c(=O)n2C	inactive: 32.4%
Cc1ccc(CSc2nnc(-c3cccc(S(=O)(=O)N4CCOCC4)c3)n2CC(C)C)cc1	inconclusive: -49.1%
CC(C)CCNC(=O)/C=C/c1ccc(Br)cc1	inconclusive: -45.1%
O=C1CC(c2ccc(F)cc2)Cc2nc(NCc3ccco3)ncc21 (stereo not drawn)	inconclusive: -53.4%
CCNc1ccc(-c2nc(-c3ccccn3)no2)cc1[N+](=O)[O-]	active: -106%
C[C@@H](C(=O)Nc1ccc2c(c1)OCCO2)n1c(=O)[nH]c2ccccc2c1=O	active: -70.1%
CC1CCc2nc3ccccc3c(C(=O)OCC(=O)N(C)C3CCS(=O)(=O)C3)c2C1 (stereo not drawn)	inactive: -12.9%
COc1cc2c(cc1OC)C(c1cccc(Cl)c1Cl)CC(=O)N2 (stereo not drawn)	inconclusive: -42.9%
CC(/C=N/n1c(-c2ccncc2)n[nH]c1=S)=C\c1ccco1	inconclusive: -41.9%
Cn1c(=O)c2c(n3c4ccccc4nc13)NC(=O)CC2c1cccc(F)c1 (stereo not drawn)	inactive: 10.1%
COC(=O)C(NNc1ccc(F)cc1)(NC(=O)c1ccccc1)C(F)(F)F (stereo not drawn)	inconclusive: -42.2%
CC(C)N(C(=O)[C@H]1C[C@H](CC(=O)NCc2ccco2)C(=O)N2CCc3c([nH]c4cc(-c5ccco5)ccc34)[C@]12C)C(C)C	inactive: -12.6%
CCOC(=O)C1=c2s/c(=C\c3ccncc3)c(=O)n2C(N)=C(C(=O)OC)C1c1ccncc1 (stereo not drawn)	inconclusive: -41.3%
Cc1nn(CC(=O)N2CCCCCC2)c(=O)c2cc3occc3n12	active: -61.9%
O=C(CCl)NCCCN(C(=O)C(Cl)Cl)c1ccc([N+](=O)[O-])cc1	active: -103%
COc1cccc(C(=O)OCCN2CCCCC2)c1	active: -100%
COc1cccc(CN2CCN(Cc3nc(-c4cccc(F)c4F)oc3C)CC2=O)c1	inactive: 28.3%

A few values from the entries so far.
activity change, negative = inhibition, CCNc1ccc(-c2nc(-c3ccccn3)no2)cc1[N+](=O)[O-] reads active: -106%
activity change, negative = inhibition, CC(C)CCNC(=O)/C=C/c1ccc(Br)cc1 reads inconclusive: -45.1%

Following part.

SMILES	activity change, negative = inhibition
CC(C)c1nnc(NC(=O)CCCC(=O)O)s1	inconclusive: -41.9%
COc1ccccc1CNS(=O)(=O)c1ccc2c(c1)NC(=O)CO2	inactive: -24.5%
CC1(C)Cc2c(c(N3CCOCC3)nc3snc(N)c23)CO1	active: -102%
CC1(c2ccc3c(c2)OCCO3)NC(=O)N(CC(=O)Nc2ccccc2)C1=O (stereo not drawn)	inactive: 1.18%
CCCS(=O)(=O)c1nc(S(=O)(=O)c2ccc(C)cc2)c(N2CCN(CCO)CC2)s1	inconclusive: -57.9%
COc1ccc(S(=O)(=O)n2nc(C)c(S(=O)(=O)N3CCCCCC3)c2C)cc1	inactive: -17.6%
Cc1nn(CC(=O)OCC(=O)NCCc2ccc(S(N)(=O)=O)cc2)c(C)c1[N+](=O)[O-]	inconclusive: -49.7%
O=C(CSc1n[nH]c(=O)n1Cc1ccccc1)Nc1ccc(N2CCOCC2)cc1	inconclusive: -57.3%
CCOc1ccccc1CN(CCc1ccc2c(c1)OCO2)Cc1ccccn1	inactive: 16.9%
CCOc1ccc(NC(=O)CCN2CCN(S(=O)(=O)c3ccc(OC)cc3)CC2)cc1	inconclusive: -42.6%
COc1ccc(-c2cc(C(F)(F)F)n3nc(C(=O)Nc4c(C)n(C)n(-c5ccccc5)c4=O)cc3n2)cc1	inconclusive: -46.6%
COc1ccccc1/C=N/NC(=O)CN(C1=NS(=O)(=O)c2ccccc21)c1ccccc1	inactive: -38.4%
COc1ccc(NC(=O)C2Cc3c(-c4ccccc4Oc4ccccc4)ccnc3O2)cc1OC (stereo not drawn)	active: -75.9%
Cc1ccccc1C1=NCC(=S)Nc2ccc(Cl)cc21	inconclusive: -45.5%
O=C(COc1ccc(C(=O)Nc2ccc(Cl)cc2)cc1)NCc1ccccc1	inconclusive: -41.3%
O=c1[nH][nH]c(-c2ccccc2)c1C=Nc1ccc(OC(F)(F)F)cc1	inactive: 50.6%
Nc1ncnc(Sc2ncccn2)c1[N+](=O)[O-]	inactive: 40.5%
Cc1cc(Nc2cccc(Cl)c2)c2ccccc2n1	inconclusive: -50.5%
Cc1cc(Br)ccc1OCCCCN1CCC(C)CC1	active: -60.2%
CN(C)c1ccc(C(CNC(=O)c2ccc(-c3ccccc3)cc2)N2CCOCC2)cc1 (stereo not drawn)	inconclusive: -48.9%
CCCCCn1c(CN2CCN(C(=O)c3ccco3)CC2)nc2c1c(=O)n(C)c(=O)n2C	inactive: 33%
